Experimental data: PubChem BioAssay AID686943 (Drosophila RNAi Screening Center, 2013)
The deposit covers about 23,000 reagents; shown is a random part of those with a known target gene and a result. 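Extra replicates exist only for a retested subset of genes; insulin dose and duration not given; both raised and lowered dpERK matter.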 A plus sign joins genes that one reagent is predicted to hit. No sequences are given here. Not stated in the record: the amount of reagent, the time to read-out.

Test: 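Search across the genome for regulators of signalling from receptor tyrosine kinase to ERK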 (primary screen)
Cell system: Drosophila S2R+ haemocyte-like cells expressing YFP-tagged ERK (Rolled)
Reagents: long dsRNA against Drosophila genes
Treatment: insulin stimulation versus unstimulated cells; dose and duration not given
Measured: 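Per-plate z-scores of phospho-ERK immunostaining normalised to YFP-tagged ERK, measured with and without insulin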
Direction: replicate 1, z-score of dpERK with insulin and replicate 2, z-score of dpERK with insulin: higher = more active ERK per ERK-YFP after insulin; replicate 1, z-score of dpERK under basal conditions: higher = more basal active ERK per ERK-YFP; replicate 1, z-score of ERK-YFP with insulin: higher = more YFP-tagged ERK signal

gene | dsRNA | replicate 1, z-score of dpERK with insulin | replicate 2, z-score of dpERK with insulin | replicate 1, z-score of dpERK under basal conditions | replicate 1, z-score of ERK-YFP with insulin
CG31741 | DRSC02887 | -0.21 | -0.29 | 0.02 | 0.27
Rab23 | DRSC12305 | -0.03 | 0.03 | 1.79 | 0.39
ND-PDSW | DRSC00715 | 0.47 | -0.13 | 0.6 | -0.22
mnd | DRSC11370 | -1.04 | -2.3 | -0.03 | -0.17
CG14982 | DRSC08440 | -3.23 | -3.3 | -1.51 | -3.57
CG4313 | DRSC18514 | -0.54 | -1.08 | -0.85 | 1.23
CG9747 | DRSC16554 | -0.82 | -0.93 | 1.27 | -0.26
nbs | DRSC11373 | 0.66 | 0.54 | 1.88 | 0.84
Sr-CIII | DRSC22262 | 0.26 | 0.47 | -0.31 | 0.44
Pex7 | DRSC10651 | 0.26 | 0.24 | 0.45 | -0.32
phol | DRSC10367 | 1.36 | 2.1 | -0.34 | -0.61
loopin-1 | DRSC06888 | -0.24 | 0.22 | -0.45 | 0.14
Spn38F | DRSC03616 | 0.99 | 0.23 | 0.55 | -0.87
Lip4 | DRSC02930 | 0.37 | -0.42 | -0.35 | 0.87
CG11906 | DRSC06096 | 0.58 | 1.09 | 0.26 | 0.41
CG15531 | DRSC15068 | -0.51 | 0 | 1.2 | 1.37
pea | DRSC07120 | 2.73 | 1.07 | -0.94 | -1.11
sens-2 | DRSC02136 | 0.86 | 0.01 | -0.01 | 0.12
sens-2 | DRSC02613 | 1.39 | 0.56 | 0.63 | 0.34
sens-2 | DRSC21374 | -0.67 | -1.93 | -1.6 | -0.27
Ugt37A1 | DRSC02114 | 0.67 | -0.54 | 0.45 | -0.59
Uba1 | DRSC07567 | 0.09 | 0.29 | 0.13 | 0.26
CG7484 | DRSC10853 | -0.05 | -0.4 | -1.13 | -0.19

Next part; the last 3 above are carried over.
gene | dsRNA | replicate 1, z-score of dpERK with insulin | replicate 2, z-score of dpERK with insulin | replicate 1, z-score of dpERK under basal conditions | replicate 1, z-score of ERK-YFP with insulin
Ugt37A1 | DRSC02114 | 0.67 | -0.54 | 0.45 | -0.59
Uba1 | DRSC07567 | 0.09 | 0.29 | 0.13 | 0.26
CG7484 | DRSC10853 | -0.05 | -0.4 | -1.13 | -0.19
snf | DRSC18835 | 0.81 | 0.39 | 0.22 | -1.43
CG43980 | DRSC11500 | 0.16 | 0.43 | 0.11 | -0.37
CG43980 | DRSC11646 | -0.01 | 0.91 | -0.08 | 0.65
CG43980 | DRSC22923 | -0.29 | -0.37 | -0.2 | -0.15
CG32260 | DRSC08084 | -0.13 | -0.21 | -0.47 | 0.77
chn | DRSC06086 | -1.22 | -0.11 | 0.02 | 0.54
sc | DRSC18830 | 0.08 | 0.62 | -0.59 | 0.31
CG10543 | DRSC04081 | -2.27 | -2.13 | -0.85 | 2.05
Nhe3 | DRSC03380 | 1.09 | -0.05 | -0.5 | 0.47
Jon25Bii | DRSC03114 | 0.99 | 0.5 | 0.04 | 0.65
Amun | DRSC19847 | 1.07 | 0.89 | -0.63 | -0.06
Nup50 | DRSC06827 | 1.58 | 0.38 | -0.04 | -0.34
Hexim | DRSC15490 | -0.53 | -0.73 | -0.73 | -0.05
muc | DRSC02832 | 0.1 | 0.72 | 0.81 | 0.22
muc | DRSC21940 | 0.94 | 0.74 | -0.32 | -1.56
CG31093 | DRSC15689 | 0.18 | -0.12 | 0.85 | 0
CG15343 | DRSC18028 | 0.34 | -0.56 | -0.15 | 0.29
CG10959 | DRSC17769 | -0.32 | 0.12 | -0.7 | 0.41
CG17002 | DRSC04978 | -0.09 | 0.06 | -0.74 | 0.41
Vsx1 | DRSC18349 | -5.03 | 0.93 | 0.14 | -4.29
Vsx1 | DRSC18350 | -1.27 | 0.24 | -0.41 | 1.62
GC2 | DRSC14476 | -0.19 | 0.34 | -1.1 | 1.09
rdgB | DRSC20365 | -0.52 | 0.43 | -1.33 | 0.62
ETH + asRNA:CR43257 | DRSC04612 | 0.58 | 0.59 | 0.04 | -0.42
CG4546 | DRSC15593 | 0.08 | 0.59 | -0.29 | 0.06
CG13786 | DRSC02289 | 1.7 | 2.32 | 0.61 | -3.97
CG13427 | DRSC06389 | -0.18 | 0.35 | 0.44 | 0.93
CG2124 | DRSC18208 | -0.31 | 0.24 | -0.35 | 0.43
CG13708 | DRSC08317 | 0.43 | -0.15 | 0.54 | 0.14
CG11155 | DRSC17184 | -0.05 | -0.51 | -0.89 | 0.52
CG11155 | DRSC17205 | -0.27 | -0.01 | -0.62 | 1.78
Con | DRSC08652 | 0.51 | -0.15 | 0.55 | -0.74
CG15572 | DRSC18060 | 0.26 | 0.58 | 0.06 | 0.35
mago | DRSC04703 | 0.55 | 0.96 | 2.77 | 1.22
